From PubChem BioAssay AID256 (DTP/NCI, 2004)
The list is a part of this screen's results and no random one: it is rich in T/C values a quarter to a half above the control, in often repeated tests (any T/C) and in doses without a T/C. Other doses and runs of a compound stand elsewhere. T/C gives the treated animals as a percentage of the vehicle group. Some doses have a count of surviving animals in place of a T/C: the source holds a T/C of zero for them, seemingly a mark for toxic or unscored doses. Some survivor counts are full or nearly so, which does not show that the dose was tolerated: the source hardly ever lists a survival T/C far under the control, and the zero likely stands for such cases as well. Counts of survivors are from the toxicity check (mostly the fifth day) where no day follows; animals may have died later. Schedules are NCI's codes, read here as Q, the interval in days (D) or hours (H), X, the number of doses. Some entries hold several experiments; their values stand side by side, smallest first. Where survival is the endpoint, this PubChem deposit counts one and a half times the control or more as active, and values a quarter to a half above the control carry no call in these data; other NCI protocols may use other cut-offs. Some T/C values carry the count of animals alive at the toxicity check (mostly the fifth day); without a count, all were alive then.

System: CD2F1 mice, L1210 leukemia ip, survival T/C
Test: NCI In Vivo Anticancer Drug Screen. Data for tumor model L1210 Leukemia (intraperitoneal) in CD2F1 (CDF1) mice
Settings: higher T/C = longer survival
Procedure, shortened: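 Tumor-bearing mice (transplanted tumor) were split into treated and vehicle control groups, and the measured endpoint of each treated group was divided by that of its vehicle controls.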

[1] = T/C endpoint: mean survival time, dose: 100.0 mg/kg/injection, schedule: Q04DX003 (ip), vehicle: saline with Tween-80
[2] = T/C endpoint: mean survival time, dose: 200.0 mg/kg/injection, schedule: Q04DX003 (ip), vehicle: saline with Tween-80
[3] = T/C endpoint: mean survival time, dose: 200.0 mg/kg/injection, schedule: Q01DX001 (ip), vehicle: saline with Tween-80
[4] = T/C endpoint: mean survival time, dose: 400.0 mg/kg/injection, schedule: Q01DX009 (ip), vehicle: saline with Tween-80
[5] = T/C endpoint: mean survival time, dose: 400.0 mg/kg/injection, schedule: Q04DX003 (ip), vehicle: saline with Tween-80
[6] = T/C endpoint: mean survival time, dose: 150.0 mg/kg/injection, schedule: Q01DX001 (ip), vehicle: saline

In the case of `[Cl-].[NH-]CCN(CC[NH-])CCN.[O-][Cl+3]([O-])([O-])O.[O-][Cl+3]([O-])([O-])O.[Pt+2]`, the survivor count (T/C endpoint: mean survival time, dose: 25.0 mg/kg/injection, schedule: Q04DX003 (ip), vehicle: saline with Tween-80) is reported as 6 of 6, the survivor count (T/C endpoint: mean survival time, dose: 50.0 mg/kg/injection, schedule: Q04DX003 (ip), vehicle: saline with Tween-80) is reported as 0 of 6 and the survivor count [1] is reported as 0 of 6. For the same molecule, the survivor count [2] was 0 of 6.
In the case of `NCCCCCCN=C(N)C(N)=NCCCCCCN`, the survivor count (T/C endpoint: mean survival time, dose: 25.0 mg/kg/injection, schedule: Q04DX002 (ip), vehicle: saline) is reported as 0 of 3.
In the case of `O=C1C=CC(c2ccccc2)(c2ccccc2)C=C1`, the survivor count [3] is reported as 6 of 6.
`NC(=S)N/N=C/c1ccc(Br)cn1` was tested, and the survivor count (T/C endpoint: mean survival time, dose: 50.0 mg/kg/injection, schedule: Q04DX002 (ip), vehicle: saline with Tween-80) was 1 of 3, the survivor count (T/C endpoint: mean survival time, dose: 100.0 mg/kg/injection, schedule: Q04DX002 (ip), vehicle: saline with Tween-80) was 0 of 3 and the survivor count (T/C endpoint: mean survival time, dose: 200.0 mg/kg/injection, schedule: Q04DX002 (ip), vehicle: saline with Tween-80) was 0 of 3. The survivor count (T/C endpoint: mean survival time, dose: 400.0 mg/kg/injection, schedule: Q04DX002 (ip), vehicle: saline with Tween-80) was 0 of 3.
`NC(=S)N/N=C\c1ncccc1O` was tested, and the T/C (T/C endpoint: mean survival time, dose: 3.13 mg/kg/injection, schedule: Q03HX024 (ip), vehicle: saline) was 132 % of control, the T/C (T/C endpoint: mean survival time, dose: 6.25 mg/kg/injection, schedule: Q03HX024 (ip), vehicle: saline) was 140 % of control and the T/C (T/C endpoint: mean survival time, dose: 12.5 mg/kg/injection, schedule: Q03HX024 (ip), vehicle: saline) was 147 and 148 % of control. The survivor count (T/C endpoint: mean survival time, dose: 50.0 mg/kg/injection, schedule: Q03HX024 (ip), vehicle: saline) was 3 of 6.
`Cc1n[nH]c2ccc([N+](=O)[O-])cc2c1=O` was tested, and the survivor count (T/C endpoint: mean survival time, dose: 200.0 mg/kg/injection, schedule: Q01DX009 (ip), vehicle: saline with Tween-80) was 5 of 6 and the survivor count [4] was 3 of 6.
`COc1ccc(C2NCCc3cc(OC)c(OC)cc32)cc1OC` (stereo unspecified) was tested, and the survivor count (T/C endpoint: mean survival time, dose: 200.0 mg/kg/injection, schedule: Q01DX009 (ip), vehicle: water) was 1 of 6.
`CC[C@@]1(O)C(=O)OCc2c1cc1n(c2=O)Cc2cc3c(CN(C)C)c(O)ccc3nc2-1` was tested, and the T/C (T/C endpoint: median survival time, dose: 10.0 mg/kg/injection, schedule: Q04DX002 (ip), vehicle: water) was 147 % of control.
`CCCN(CCC)N=Nc1ccccc1` was tested, and the survivor count (T/C endpoint: mean survival time, dose: 300.0 mg/kg/injection, schedule: Q01DX001 (ip), vehicle: saline) was 0 of 6.
In the case of `COc1cc([N+](=O)[O-])ccc1NC(=O)OC/C=C/c1ccccc1`, the survivor count [4] is reported as 6 of 6.
`CCC(CCC(C)C1CCC2C3CC=C4CC(O)CCC4(C)C3CCC12C)C(C)C` (stereo unspecified) (tested in a mixture with another compound) was tested, and the survivor count (T/C endpoint: mean survival time, dose: 50.0 mg/kg/injection, schedule: Q01DX009 (ip), vehicle: acetone) was 5 of 6.
With `CCCN(CCC)CC(=O)Nc1c(Cl)cccc1Cl` the survivor count (T/C endpoint: mean survival time, dose: 200.0 mg/kg/injection, schedule: Q01DX009 (ip), vehicle: saline sonified) was 3 of 6 and the survivor count [5] was 6 of 6.
`Nc1nc(-c2ccccc2)cs1` was tested, and the survivor count [2] was 0 of 6 and the survivor count [5] was 0 of 6.
For `CC1CCCCC1NC(=O)Nc1ccccc1` (stereo unspecified), the survivor count [5] was 6 of 6.
For `O=C(Nc1ccc(Nc2ccccc2)cc1)Nc1cc([N+](=O)[O-])ccc1Cl`, the survivor count [3] was 6 of 6.
`CC(F)(F)C(F)(F)C(=O)CC(=O)C(F)(F)F.CC(F)(F)C(F)(F)C(=O)CC(=O)C(F)(F)F.[Cu]` was tested, and the survivor count [1] was 4 of 6, the survivor count [2] was 0 of 6 and the survivor count [5] was 0 of 6.
With `Nc1nnnc2c1ncn2C1OC(CO)C(O)C1O` (stereo unspecified) the T/C (T/C endpoint: mean survival time, dose: 75.0 mg/kg/injection, schedule: Q01DX001 (ip), vehicle: saline) was 130 % of control and the T/C [6] was 130 % of control.
For `COCC1C(N)C(C)NC(Cl)C1C#N` (stereo unspecified), the survivor count [4] was 4 of 6.
For `CC(C)(O)CCNc1ncnc2c1ncn2C1OC(CO)C(O)C1O` (stereo unspecified), the T/C (T/C endpoint: mean survival time, dose: 100.0 mg/kg/injection, schedule: Q01DX005 (ip), vehicle: water) was 145 % of control, the survivor count (T/C endpoint: mean survival time, dose: 200.0 mg/kg/injection, schedule: Q01DX005 (ip), vehicle: water) was 3 of 6 and 5 of 6 and the survivor count (T/C endpoint: mean survival time, dose: 400.0 mg/kg/injection, schedule: Q01DX005 (ip), vehicle: water) was 0 of 6.
For `CCCCCCCCSC1=C(Cl)C(=O)C(OC)=C(OC)C1=O`, the survivor count (T/C endpoint: mean survival time, dose: 50.0 mg/kg/injection, schedule: Q01DX009 (ip), vehicle: saline with Tween-80) was 2 of 6 and 4 of 6.
In the case of `CCOc1ccc(Nc2c3ccccc3nc3ccccc23)cc1`, the T/C (T/C endpoint: mean survival time, dose: 100.0 mg/kg/injection, schedule: Q01DX009 (ip), vehicle: saline with Tween-80) is reported as 131 % of control [5 of 6 alive] and the survivor count [4] is reported as 0 of 6.
`COc1cccc2c1C(=O)c1c(O)c3c(c(O)c1C2=O)C[C@@](O)(C(=O)CSc1ccccc1)C[C@@H]3OC1CC(N)C(O)C(C)O1` (stereo partly specified) was tested, and the survivor count (T/C endpoint: mean survival time, dose: 25.0 mg/kg/injection, schedule: Q01DX009 (ip), vehicle: water) was 1 of 6.
`CN(C)C1CC2C=CC1C1C=CC21` (stereo unspecified) was tested, and the survivor count (T/C endpoint: mean survival time, dose: 100.0 mg/kg/injection, schedule: Q01DX009 (ip), vehicle: water) was 2 of 6.
In the case of `N=c1nc2n(cc1F)[C@@H]1O[C@H](CO)[C@@H](O)[C@@H]1O2`, the T/C (T/C endpoint: mean survival time, dose: 25.0 mg/kg/injection, schedule: Q01DX009 (ip), vehicle: saline) is reported as 138 % of control, the T/C (T/C endpoint: mean survival time, dose: 34.0 mg/kg/injection, schedule: Q04DX003 (ip), vehicle: saline) is reported as 126 % of control and the T/C (T/C endpoint: mean survival time, dose: 800.0 mg/kg/injection, schedule: Q01DX009 (ip), vehicle: saline) is reported as 132 % of control. For the same molecule, the T/C (T/C endpoint: median survival time, dose: 32.0 mg/kg/injection, schedule: Q01DX005 (ip), vehicle: saline) was 140 % of control, the T/C (T/C endpoint: median survival time, dose: 64.0 mg/kg/injection, schedule: Q01DX005 (ip), vehicle: saline) was 148 % of control and the T/C (T/C endpoint: median survival time, dose: 128.0 mg/kg/injection, schedule: Q01DX005 (ip), vehicle: saline) was 148 % of control.
`COC1CC2C=C(C)/C=C/C=C/C(=O)NC(c3ccccc3)C/C=C/CCC(O)CC(=O)C2=C1O` (stereo unspecified) was tested, and the survivor count (T/C endpoint: median survival time, dose: 25.0 mg/kg/injection, schedule: Q01DX009 (ip), vehicle: Klucel (hydroxypropylcellulose) (HPC)) was 0 of 6 and the survivor count (T/C endpoint: median survival time, dose: 50.0 mg/kg/injection, schedule: Q01DX009 (ip), vehicle: Klucel (hydroxypropylcellulose) (HPC)) was 0 of 6.
`Cc1nccc2c1[nH]c1cc(N)ccc12.[Cl][Sn][Cl]` was tested, and the survivor count [1] was 0 of 6, the survivor count [2] was 0 of 6 and the survivor count [5] was 0 of 6.
`O=NN(CCCl)C(=O)NC1C(O)C(O)C(O)C(O)C1O` (stereo unspecified) was tested, and the T/C (T/C endpoint: mean survival time, dose: 9.0 mg/kg/injection, schedule: Q01DX001 (ip), vehicle: saline) was 131 % of control, the T/C (T/C endpoint: mean survival time, dose: 16.5 mg/kg/injection, schedule: Q01DX001 (ip), vehicle: saline) was 143 % of control and the T/C (T/C endpoint: mean survival time, dose: 67.0 mg/kg/injection, schedule: Q01DX001 (ip), vehicle: saline) was 128 % of control. The survivor count (T/C endpoint: mean survival time, dose: 100.0 mg/kg/injection, schedule: Q01DX001 (ip), vehicle: saline) was 10 of 10 and the survivor count [6] was 9 of 10.
For `O=C(N/N=C/c1ccc2c(c1)CCC2)c1ccccc1[N+](=O)[O-]`, the survivor count [1] was 6 of 6.
For `O=C(NCCS)Nc1ccccc1`, the survivor count [1] was 3 of 3 and the survivor count (T/C endpoint: mean survival time, dose: 400.0 mg/kg/injection, schedule: Q01DX001 (ip), vehicle: saline with Tween-80) was 3 of 6.
With `CCCCC(=O)/C=C/Sc1n[nH]c(=O)[nH]c1=O` the survivor count (T/C endpoint: mean survival time, dose: 100.0 mg/kg/injection, schedule: Q01DX005 (ip), vehicle: distilled water + Tween-80) was 0 of 6 and the survivor count (T/C endpoint: mean survival time, dose: 200.0 mg/kg/injection, schedule: Q01DX005 (ip), vehicle: distilled water + Tween-80) was 0 of 6.
`CC1(C(=O)O)CCOC1=O` (stereo unspecified) was tested, and the survivor count (T/C endpoint: mean survival time, dose: 400.0 mg/kg/injection, schedule: Q04DX002 (ip), vehicle: saline) was 2 of 3.
With `Nc1nc(N)c2c(ccc3c2ccn3Cc2cccc([N+](=O)[O-])c2)n1` the T/C (T/C endpoint: median survival time, dose: 6.25 mg/kg/injection, schedule: Q01DX009 (ip), vehicle: saline with Tween-80) was 125 and 137 % of control.
`CC(C#N)(Nc1ccccc1)c1ccco1` (stereo unspecified) was tested, and the survivor count (T/C endpoint: mean survival time, dose: 400.0 mg/kg/injection, schedule: Q01DX009 (ip), vehicle: other) was 0 of 6.
In the case of `C[CH2][Sn]([Cl])([Cl])[CH2]C.Oc1ccccc1C=NCCN=Cc1ccccc1O`, the survivor count [1] is reported as 0 of 6, the survivor count [2] is reported as 0 of 6 and the survivor count [5] is reported as 0 of 6.
For `COC(=O)CCC(=O)c1ccccc1C`, the survivor count (T/C endpoint: mean survival time, dose: 400.0 mg/kg/injection, schedule: Q04DX003 (ip), vehicle: acetone) was 2 of 6.
For `CCCC[n+]1ccccc1Cc1ccccc1`, the survivor count (T/C endpoint: mean survival time, dose: 50.0 mg/kg/injection, schedule: Q04DX003 (ip), vehicle: saline) was 0 of 3 and the survivor count (T/C endpoint: mean survival time, dose: 100.0 mg/kg/injection, schedule: Q04DX003 (ip), vehicle: saline) was 0 of 3.
